Assay [1] concerns the target T1, nephrin (expressed from the pcDNA3-nephrin plasmid in cultured mouse podocytes, crosslinked and endocytosed) (UniProt Q9QZS7).
T1 sequence: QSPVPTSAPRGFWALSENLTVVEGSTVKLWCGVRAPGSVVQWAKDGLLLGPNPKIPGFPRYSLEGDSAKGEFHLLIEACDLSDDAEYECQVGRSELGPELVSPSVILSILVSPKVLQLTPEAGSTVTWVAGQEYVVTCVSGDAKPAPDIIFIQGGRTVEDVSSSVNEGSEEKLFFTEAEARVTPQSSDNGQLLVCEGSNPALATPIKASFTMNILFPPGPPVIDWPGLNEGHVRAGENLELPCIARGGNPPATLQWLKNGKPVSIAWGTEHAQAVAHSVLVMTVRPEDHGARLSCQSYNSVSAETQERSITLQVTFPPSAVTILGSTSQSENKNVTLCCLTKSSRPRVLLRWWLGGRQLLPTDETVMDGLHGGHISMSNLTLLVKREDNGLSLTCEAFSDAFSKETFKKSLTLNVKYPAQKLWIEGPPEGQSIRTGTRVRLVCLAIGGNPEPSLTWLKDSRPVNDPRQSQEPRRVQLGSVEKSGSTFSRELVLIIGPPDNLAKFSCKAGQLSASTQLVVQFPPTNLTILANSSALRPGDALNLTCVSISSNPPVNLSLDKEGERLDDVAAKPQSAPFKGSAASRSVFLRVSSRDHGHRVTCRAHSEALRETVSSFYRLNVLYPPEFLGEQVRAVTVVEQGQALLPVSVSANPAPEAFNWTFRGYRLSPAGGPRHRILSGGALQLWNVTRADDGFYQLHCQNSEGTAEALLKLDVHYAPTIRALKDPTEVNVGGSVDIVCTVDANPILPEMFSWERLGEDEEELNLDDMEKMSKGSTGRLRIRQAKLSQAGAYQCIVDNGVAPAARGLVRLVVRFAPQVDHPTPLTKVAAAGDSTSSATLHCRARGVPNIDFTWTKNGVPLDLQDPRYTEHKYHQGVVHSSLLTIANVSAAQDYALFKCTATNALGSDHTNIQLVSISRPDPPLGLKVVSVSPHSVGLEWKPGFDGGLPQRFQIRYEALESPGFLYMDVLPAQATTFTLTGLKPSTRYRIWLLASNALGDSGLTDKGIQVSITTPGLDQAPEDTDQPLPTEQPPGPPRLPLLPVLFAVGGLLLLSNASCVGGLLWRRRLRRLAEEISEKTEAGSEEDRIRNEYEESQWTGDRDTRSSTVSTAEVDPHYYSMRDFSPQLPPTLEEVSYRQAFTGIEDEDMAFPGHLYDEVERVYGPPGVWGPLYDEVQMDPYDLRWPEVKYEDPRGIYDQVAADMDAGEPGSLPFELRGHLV
The assay can be described thus: co-IP.

Amino acid sequences for entries named in this document (tags omitted).
UniProt O08788: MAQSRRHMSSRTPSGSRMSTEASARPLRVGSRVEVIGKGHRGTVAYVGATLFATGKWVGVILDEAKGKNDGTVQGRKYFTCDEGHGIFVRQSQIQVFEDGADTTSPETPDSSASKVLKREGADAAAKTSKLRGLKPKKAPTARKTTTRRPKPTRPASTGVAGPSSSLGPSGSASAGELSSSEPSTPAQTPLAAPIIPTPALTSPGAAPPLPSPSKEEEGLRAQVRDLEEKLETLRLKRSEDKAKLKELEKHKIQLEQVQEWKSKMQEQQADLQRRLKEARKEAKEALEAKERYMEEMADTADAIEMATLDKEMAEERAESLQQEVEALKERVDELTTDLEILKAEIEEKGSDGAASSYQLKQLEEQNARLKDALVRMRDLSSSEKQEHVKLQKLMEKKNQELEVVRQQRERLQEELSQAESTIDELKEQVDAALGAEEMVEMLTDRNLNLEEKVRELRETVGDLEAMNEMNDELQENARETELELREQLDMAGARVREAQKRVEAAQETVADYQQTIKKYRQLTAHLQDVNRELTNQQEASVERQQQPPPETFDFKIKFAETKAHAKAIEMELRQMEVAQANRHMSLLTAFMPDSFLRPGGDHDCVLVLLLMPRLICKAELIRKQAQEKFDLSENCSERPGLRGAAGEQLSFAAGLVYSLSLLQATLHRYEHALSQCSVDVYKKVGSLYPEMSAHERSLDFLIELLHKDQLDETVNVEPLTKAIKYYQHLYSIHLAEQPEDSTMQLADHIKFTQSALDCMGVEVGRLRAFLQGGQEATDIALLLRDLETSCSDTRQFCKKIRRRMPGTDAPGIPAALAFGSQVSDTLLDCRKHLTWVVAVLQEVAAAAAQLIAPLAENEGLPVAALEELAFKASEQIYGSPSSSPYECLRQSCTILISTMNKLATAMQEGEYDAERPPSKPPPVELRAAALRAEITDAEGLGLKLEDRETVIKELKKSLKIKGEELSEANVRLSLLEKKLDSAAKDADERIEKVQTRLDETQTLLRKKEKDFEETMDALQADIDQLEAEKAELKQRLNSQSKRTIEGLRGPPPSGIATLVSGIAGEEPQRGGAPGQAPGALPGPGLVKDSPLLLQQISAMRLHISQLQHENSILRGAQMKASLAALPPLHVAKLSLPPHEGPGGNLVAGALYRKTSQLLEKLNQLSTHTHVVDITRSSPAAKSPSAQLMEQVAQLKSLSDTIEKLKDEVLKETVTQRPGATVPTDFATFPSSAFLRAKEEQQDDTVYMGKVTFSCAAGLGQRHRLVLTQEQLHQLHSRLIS
UniProt P63168: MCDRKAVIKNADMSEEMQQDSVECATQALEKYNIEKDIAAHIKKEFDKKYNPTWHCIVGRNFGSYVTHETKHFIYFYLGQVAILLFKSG

Assay [2] deals with T2, nephrin (endogenous, mouse glomeruli) (mouse (endogenous in glomeruli of C57BL/6J mice)) (UniProt Q9QZS7).
T2 sequence: T1 sequence
The experiment in a line: co-IP.

No constants are given. Whether binding was seen depends on the method and setting. In cells and extracts the contact can be indirect. Some binding calls cover weakened binding; strength is not graded here.

Regarding “DCTN1 (dynactin subunit 1) (from UniProt O08788 1-1281)”, the binding entry in assay [1] and in assay [2] was “binds” each time.
As to “Dynll1 (dynein light chain LC8-type 1) (from UniProt P63168 1-89)”, the binding entry in assay [1] and in assay [2] was “binds” in each case.
